Counter-ions that a name gives are not always drawn.
Test system: U937 cells adhered to HUVEC stimulated by TNFα
Test: Inhibitory effect on cell adhesion (U937 adhesion to TNFα-stimulated HUVEC)
Format: cell-based
Conditions: Homo sapiens, fluorescence (PKH2) readout
Procedure: The test was conducted by reference to the method by Ross et al. (J. Biol. Chem., 267 8537-8543 (1992)). More specifically, after human umbilical venous endothelial cells (HUVEC) were cultured on a 48-well plate to confluent growth, TNFα was added thereto. Upon elapsed time of 5 hours after the addition, U937, which was a human monocytic/histocytic cell fluorescence-labeled with PKH2 (product of Sigma-Aldrich Co., Ltd.), was added in a proportion of 1×10^6 cells per well. After the plate was left at rest at room temperature for 1 hour, unadhered U937 was washed out and lysed in 1% Triton X-100 to measure a remaining fluorescence intensity (excitation wavelength: 480 nm; measuring wavelength: 530 nm). HUVEC and U937 were cultured in EGM-2 (product of Sanko Junyaku K. K.) and 10% FCS-containing RPMI1640, respectively. […] The inhibitory activity was calculated out as IC50 value after inhibitory ratio at each concentration of test compounds was determined. The inhibitory ratio was calculated according to the equation […], wherein A is the number of U937 cells adhered to HUVEC stimulated by TNFα when no test agent was added, B is the number of U937 cells adhered to HUVEC not stimulated by TNFα when no test agent was added, and C is the number of U937 cells adhered to HUVEC stimulated by TNFα when the test agent was added. […]

Q: `CCN(Cc1ccnc(-c2cc(OC)c(OC)c(OC)c2)c1)C1CCN(Cc2ccnc(-c3cc(OC)c(OC)c(OC)c3)c2)CC1` [Example 40, 4-[N-Ethyl-N-[[2-(3,4,5-trimethoxyphenyl)pyridin-4-yl]methyl]amino]-1-[[2-(3,4,5-trimethoxyphenyl)pyridin-4-yl]methyl]piperidine Tetrahydrochloride] was tested. Which IC50 did it give?
A: The IC50 was 200 nM.
